Reference: PubChem BioAssay AID540303 (National Center for Advancing Translational Sciences (NCATS), 2011)
Among all 330,000 compounds or so, about 1,000 (0.3%) were called active. The inconclusive results got no clear call from the source; some entries with a clear call stand among them for comparison. Calls come from the whole dose curve; as a rule, active = well fitted inhibition curve with a large enough effect; inconclusive = small, poorly fitted or top-dose-only effect; inactive = no such curve, though single readings can be large or run the other way; tested in mouse RAW 264.7 cells. Potencies of inconclusive entries are doubtful fits and often do not repeat.
Potency is the fitted concentration of half-maximal effect.

Assay: qHTS for Inhibitors of Cell Surface uPA Generation; note: nearly all actives have a fitted effect of over 55% in size
Conditions: cell surface uPA generation assay; series mostly up to 38.3 µM
Outline: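 RAW 264.7, 4000 cells/well, o/n 37 C; cpd 1:5 dilution, up to 38.3 uM final; 24 h 37 C/5% CO2 with reagent; ATP-Lite lum. High ATP = LF entry blocked.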
For `CCCCCCCCCCCCCCCC[N+](C)(C)CC`, the Potency was inconclusive: 1 µM [inhibitor, partial curve, poor fit]. With `O=c1c2ccccc2oc2ccc(NCCCN3CCOCC3)cc12` the Potency was inconclusive: 10 µM [inhibitor, single point]. In the case of `COC(=O)Cc1ccc(NC(=S)NNC(=O)c2ccccc2Br)cc1`, the Potency is reported as “inactive”. With `COc1ccc(/C=C/C(=O)c2c(O)c(OC)c3occc3c2OC)cc1` the Potency was inconclusive: 28.2 µM [inhibitor, single point]. With `Cc1ccc(CN2C(=O)C(CC(C)C)Nc3ncnc(N4CCN(c5ccccc5)CC4)c32)cc1` (stereo not given) the Potency was inconclusive: 7.08 µM [inhibitor, single point]. For `Cc1cc(C(=O)COC(=O)c2ccc(N)c([N+](=O)[O-])c2)c(C)n1-c1ccc2c(c1)OCO2`, the Potency was inconclusive: 12.6 µM [inhibitor, single point]. With `Cc1ccc(-c2nn3c(=O)c(C)nnc3s2)cc1` the Potency was inconclusive: 4.47 µM [inhibitor, partial curve, poor fit]. With `CN1CCN(c2nc(-c3ccc(Cl)s3)cs2)CC1` the Potency was “inactive”. With `COC(=O)C1C(O)=C(C(C)=Nc2cccc3ccccc23)C(=O)CC1(C)C` (stereo not given) the Potency was inconclusive: 1.78 µM [inhibitor, full curve, poor fit]. In the case of `CCN(Cc1ccccc1)C(=O)c1ccc(N(C)S(=O)(=O)c2ccc(C)cc2)cc1`, the Potency is reported as inconclusive: 31.6 µM [inhibitor, partial curve, poor fit]. With `Cc1ccc(-c2cc(-c3ccccc3)nc(N(C)N)n2)cc1` the Potency was inconclusive: 10 µM [inhibitor, partial curve, poor fit]. With `Cc1ccccc1NC(=O)CSc1nn2c(=O)c(C)nnc2s1` the Potency was “inactive”. For `CC(C)(C)NC(=O)CN1CCCN(C(=O)c2cccc(S(=O)(=O)N3CCc4ccccc43)c2)CC1`, the Potency was inconclusive: 2.24 µM [inhibitor, full curve, poor fit]. For `Cc1c(CCC(=O)NC2CC2)c(=O)oc2cc(O)ccc12`, the Potency was “inactive”. In the case of `O=C(c1ccccc1)n1c(=O)c(F)cn(COCCBr)c1=O`, the Potency is reported as inconclusive: 11.2 µM [inhibitor, single point]. With `O=C(O)C1C2C=CC(C2)C1C(=O)NCCCN1CCCC1=O` (stereo not given) the Potency was “inactive”. With `O=C(NNC(=S)NCc1ccccc1)c1cccnc1` the Potency was “inactive”. For `C[C@H](NC(=O)[C@@H]1CCC(=O)N1Cc1ccco1)c1ccccc1`, the Potency was inconclusive: 3.16 µM [inhibitor, partial curve, poor fit]. In the case of `Cc1cc(/C=C2\SC(=S)N(Cc3ccco3)C2=O)c(C)n1-c1ccccc1`, the Potency is reported as “inactive”. In the case of `CC(=O)c1ccc(C(=O)Nc2nnc(-c3ccc(Cl)cc3)o2)cc1`, the Potency is reported as inconclusive: 22.4 µM [inhibitor, partial curve, poor fit]. With `CN(C)c1ccc(-c2cc(O)c3ncccc3c2)cc1` the Potency was inconclusive: 12.6 µM [inhibitor, single point]. In the case of `COc1cccc(CN(C)C(=O)c2cc(S(=O)(=O)N3CCCCCC3)ccc2OC)c1`, the Potency is reported as inconclusive: 5.62 µM [inhibitor, partial curve]. In the case of `COC(=O)c1c(C)oc2ccc(N(C(=O)Oc3ccccc3)S(=O)(=O)c3ccc(Cl)c([N+](=O)[O-])c3)cc12`, the Potency is reported as “inactive”. For `COc1ccc(CN2CCN(Cc3c[nH]c4ccccc34)CC2CCO)cc1C` (stereo not given), the Potency was inconclusive: 12.6 µM [inhibitor, single point]. In the case of `CCN1CCN(CCNC(=O)c2ccc(/C=C3/Sc4ccccc4N(Cc4cccc(C)c4)C3=O)cc2)CC1`, the Potency is reported as active: 6.31 µM. For `COc1ccc(S(=O)(=O)N2CCCCCC2)cc1NC(=O)CN1C(=O)NC(C)(c2ccccc2)C1=O` (stereo not given), the Potency was “inactive”. With `COc1cc2c(cc1NC(=O)c1cc(-c3ccncc3)nc3ccccc13)oc1ccccc12` the Potency was “inactive”. In the case of `Cn1nc(-c2ccccc2)c(N2CCCCC2)cc1=O`, the Potency is reported as inconclusive: 11.2 µM [inhibitor, partial curve, poor fit]. For `CC(C)OC(=O)c1cccc(C(=O)Oc2ccc(Br)cc2)n1`, the Potency was “inactive”. For `COc1ccc(CN2CCC(Oc3ccc(C(=O)N4CCCCC4)cc3)CC2)cc1C`, the Potency was inconclusive: 11.2 µM [inhibitor, partial curve, poor fit]. For `CCOc1ccc(NC(c2ccccn2)c2oc(CO)cc(=O)c2O)cc1` (stereo not given), the Potency was inconclusive: 11.2 µM [inhibitor, single point]. For `COc1cc(C(C)=O)ccc1OCC(O)CN1CCN(c2ccc(C)cc2C)CC1` (stereo not given), the Potency was “inactive”. In the case of `Cc1[nH]c(=O)[nH]c(=O)c1/C=N/NC(=O)[C@@H](N)CC(C)C`, the Potency is reported as inconclusive: 17.8 µM [inhibitor, single point]. In the case of `O=C(CSc1nnc2ccc(-c3cccnc3)nn12)Nc1cccc(F)c1`, the Potency is reported as inconclusive: 1.41 µM [inhibitor, partial curve, poor fit]. For `O=C(O)C1C2CCC(O2)C1C(=O)Nc1ccccc1Br` (stereo not given), the Potency was inconclusive: 10 µM [inhibitor, partial curve, poor fit]. In the case of `O=C(NNS(=O)(=O)c1ccccc1Cl)C1COc2ccccc2O1` (stereo not given), the Potency is reported as “inactive”. With `OCC1(CCOc2ccccc2)CCN(CC2=Cc3cc(Cl)ccc3OC2)CC1` the Potency was “inactive”. In the case of `COc1cccc(NC(=O)c2nnn(CCc3ccccc3)c2N)c1`, the Potency is reported as inconclusive: 12.6 µM [inhibitor, partial curve, poor fit]. With `C/C(=N\O)C(C)(C)Nc1ccc(Cl)cc1` the Potency was “inactive”. In the case of `Cc1ccc(NCc2nnc(SCc3ccc(C#N)cc3)n2Cc2ccco2)c(C)c1`, the Potency is reported as “inactive”. In the case of `COc1cccc(C=Nc2ccc(N3CCOCC3)cc2)c1O`, the Potency is reported as inconclusive: 11.2 µM [inhibitor, single point]. With `Cc1cccc(NC(=O)C2CCN(C(=O)c3ccccc3C)CC2)n1` the Potency was “inactive”. For `COc1ccc(-c2nn(-c3ccccc3)cc2/C=C(\C#N)S(=O)(=O)c2ccccc2)cc1OC`, the Potency was inconclusive: 10 µM [inhibitor, partial curve, poor fit]. In the case of `NC(=O)c1ccc(-c2ccc(Br)cc2)o1`, the Potency is reported as “inactive”. With `C[C@H](CO)N1C[C@H](C)[C@@H](CN(C)CC2CC2)Oc2c(NC(=O)Cc3ccccc3)cccc2C1=O` the Potency was inconclusive: 12.6 µM [inhibitor, single point]. With `Cc1ccc(NC(=O)C2C3CCC(O3)C2C(=O)O)cc1C` (stereo not given) the Potency was inconclusive: 7.08 µM [inhibitor, partial curve]. For `O=C(N[C@@H]1C/C=C\C[C@@H](CC(=O)N(CCO)Cc2ccccc2)C(=O)NC[C@H](c2ccccc2)OC1=O)OCC1c2ccccc2-c2ccccc21`, the Potency was inconclusive: 7.08 µM [inhibitor, single point]. In the case of `c1coc(CN(Cc2cccs2)Cc2nnnn2C2CCCCC2)c1`, the Potency is reported as “inactive”. With `CC(C)NC1=C(Cl)C(=O)c2ccccc2C1=O` the Potency was inconclusive: 7.08 µM [inhibitor, single point]. For `COc1cccc(/C=C2\Oc3cc(OCC(=O)N4CCC[C@H]4C(=O)O)ccc3C2=O)c1`, the Potency was inconclusive: 10 µM [inhibitor, single point]. For `O=C(CCl)Nc1ccc(-c2ccccc2)cc1`, the Potency was inconclusive: 10 µM [inhibitor, partial curve, poor fit]. In the case of `O=C(NCC1CCCO1)c1cc2c([nH]c3ccccc32)c(-c2cccc(Br)c2)n1` (stereo not given), the Potency is reported as inconclusive: 15.8 µM [inhibitor, single point]. With `O=C(NCc1ccccn1)C(=O)N/N=C/c1ccc2c(c1)OCO2` the Potency was inconclusive: 11.2 µM [inhibitor, single point]. For `CC(C)Cn1c(N)c(C(=O)NCC2CCCO2)c2nc3ccccc3nc21` (stereo not given), the Potency was “inactive”. For `Oc1ccc(C[C@@H]2CNCCN2CCC23CC4CC(CC(C4)C2)C3)cc1`, the Potency was inconclusive: 10 µM [inhibitor, single point]. In the case of `Cc1nn(CSc2c(F)c(F)c(F)c(F)c2F)c(C)c1[N+](=O)[O-]`, the Potency is reported as inconclusive: 11.2 µM [inhibitor, partial curve, poor fit]. For `CCOc1ccc(Nc2nc(Cc3nnc(SCC(=O)N(CC)CC)n3C)cs2)cc1`, the Potency was “inactive”. For `CCOc1cc(/C=N/Nc2nc(N3CCCCC3)nc(N3CCCCC3)n2)ccc1OC(=O)c1ccco1`, the Potency was active: 12.6 µM. With `CC(=O)c1ccc(N2CCN(C(=O)CN3C(=O)NC4(CCCCC4)C3=O)CC2)c(F)c1` the Potency was inconclusive: 28.2 µM [inhibitor, partial curve, poor fit]. With `COc1ccc(CN2CCc3cc(OC)c(OC)cc3C2)cc1O` the Potency was inconclusive: 28.2 µM [inhibitor, single point]. For `CCOc1ccc(CN2CCCC(CO)(Cc3ccc(F)cc3)C2)cc1` (stereo not given), the Potency was “inactive”. With `O=C(Nc1ccccc1C(=O)N1CCCCC1)NC1CCCCC1` the Potency was “inactive”. With `CCOC(=O)[C@H](CCc1ccccc1)N[C@H]1CCc2ccccc2N(CC(=O)O)C1=O` the Potency was “inactive”. For `Cc1cccc(-n2ncc3c(N4CCOCC4)ncnc32)c1`, the Potency was active: 0.794 µM. In the case of `CC(C)(C)c1ccc(C(=O)NCCN2CCCC2)cc1`, the Potency is reported as inconclusive: 1.58 µM [inhibitor, partial curve, poor fit]. For `CCOc1ccc(-c2cccc(NC(=O)COc3ccccc3)c2)nn1`, the Potency was “inactive”. In the case of `CC1=CC(C)(C)N=C(Nc2nc(C)c3cc(C)cc(C)c3n2)N1`, the Potency is reported as inconclusive: 12.6 µM [inhibitor, partial curve, poor fit]. For `COC(=O)c1ccc(/C=N/Nc2nc(-c3ccccc3)cs2)cc1`, the Potency was “inactive”. With `CN(C)c1ccc(CNC(=O)C2CCN(S(=O)(=O)c3ccc4c(c3)CCC(=O)N4)CC2)cc1` the Potency was inconclusive: 25.1 µM [inhibitor, partial curve, poor fit]. For `CSc1nc2ccc(NS(=O)(=O)c3cccc(Cl)c3Cl)cc2s1`, the Potency was “inactive”.
